Source: the RNAGym collection of RNA variant scans (doi:10.1126/science.aae0568)
This sample is rich in variants without activity.

B1: tRNA (parent)
chain: GUUCCGUUGGCGUAAUGGUAACGCGUCUCCCUCCUAAGGAGAAGACUGCGGGUUCGAGUCCCGUACGGAACG

Variants of: B1
Test: yeast fitness relative to wild type (ratio to wild type); higher = fitter; tRNA-Arg(CCU), competitive growth, 37 C, YPD
Summary of the method: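 Genotype frequency changes were the basis for Darwinian fitness relative to wild type. The frequencies came from 100-nucleotide paired-end sequencing of gene amplicons from the start population and each end population of pooled yeast strains with tRNA-Arg(CCU) gene variants at the native locus. Competition ran in YPD at 37°C for 24 hours in six replicates, genotypes needed ≥ 100 starting reads, and estimates < 0.5 were set to 0.5.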

Going from U3C C60A C61G A65C to U2C G10C, the yeast fitness rises from ≤ 0.5 to 0.724.

C4G C5A A15G C33G C55G and U8A G18A C30A U32A U35G A57G C61G C62A cannot be ordered by yeast fitness: ≤ 0.5 for the first, ≤ 0.5 for the second.

A14U C29G A37C A42U A57G G67A and C11A A15C C24G C34A A65C cannot be ordered by yeast fitness: ≤ 0.5 for the first, ≤ 0.5 for the second.

Compared with U8C G12A A65G, U26C U28A C30U A65U is lower in yeast fitness: 0.615 for the first, ≤ 0.5 for the second.

Going from C4U A37C G38A to G18A C29U G52C G63A, the yeast fitness falls from 0.613 to ≤ 0.5.

Going from C49G C60U to C5U C22U C30G G58C, the yeast fitness falls from 0.692 to ≤ 0.5.

C27U C33G A43G U47C A57G C61U C62U and G12A A20U C55U C61U cannot be ordered by yeast fitness: ≤ 0.5 for the first, ≤ 0.5 for the second.

A14G A57C C62U and C22G A40U U54A C66U cannot be ordered by yeast fitness: ≤ 0.5 for the first, ≤ 0.5 for the second.

G17A A20G U53A and C24G C55U G67C cannot be ordered by yeast fitness: ≤ 0.5 for the first, ≤ 0.5 for the second.

A20C G38C A42G A70C and U8A C29G A40G G63A cannot be ordered by yeast fitness: ≤ 0.5 for the first, ≤ 0.5 for the second.

A21U C31A G39C C49U C62G G68A and G10A G17A C29A C34G A43C C60G cannot be ordered by yeast fitness: ≤ 0.5 for the first, ≤ 0.5 for the second.

G6A C11U G50A A70U and A21G G23A C27G A37U A40U cannot be ordered by yeast fitness: ≤ 0.5 for the first, ≤ 0.5 for the second.

U8C C22G G39A A42U A57C and U7A A43C G51C cannot be ordered by yeast fitness: ≤ 0.5 for the first, ≤ 0.5 for the second.

U3C U19A C22U G63A and C4A A36C A40G C49U cannot be ordered by yeast fitness: ≤ 0.5 for the first, ≤ 0.5 for the second.

C11U A21C A43G and A40U G44C U53G C62U cannot be ordered by yeast fitness: ≤ 0.5 for the first, ≤ 0.5 for the second.

First: C11U C29A G51A
Second: C55A G68C
The yeast fitness of the first is lower: ≤ 0.5 for the first, 0.674 for the second.

U13A A21C G38A G44C U54A and G12A C29G G48A A70U cannot be ordered by yeast fitness: ≤ 0.5 for the first, ≤ 0.5 for the second.

C33U A57C C66G and A43U C62G A65G C66A A69C cannot be ordered by yeast fitness: ≤ 0.5 for the first, ≤ 0.5 for the second.

C29G A42C G67C and G17C G23U U28A C31G A65G cannot be ordered by yeast fitness: ≤ 0.5 for the first, ≤ 0.5 for the second.

G10A A15C U16C A37C G50A U53A C61U and A15C C22A A42C C46A A65U cannot be ordered by yeast fitness: ≤ 0.5 for the first, ≤ 0.5 for the second.

C24G C27A A65C and G6C U8C C24U U35C C66U cannot be ordered by yeast fitness: ≤ 0.5 for the first, ≤ 0.5 for the second.

G12A A14C A43C A45G and G18A U26A A40U A57C cannot be ordered by yeast fitness: ≤ 0.5 for the first, ≤ 0.5 for the second.

C5G U7A G12A A20C C60U A69U and C5U C27U U35G A36G G58C C66U cannot be ordered by yeast fitness: ≤ 0.5 for the first, ≤ 0.5 for the second.

G10A C11U A36G A37G G67C and C27U C31A A40U cannot be ordered by yeast fitness: ≤ 0.5 for the first, ≤ 0.5 for the second.

G6A U19G C60A and A20C G38C A43U A45G A65C cannot be ordered by yeast fitness: ≤ 0.5 for the first, ≤ 0.5 for the second.

U13A C34A A37C G58A and C4G U7G G12C A20U A70U cannot be ordered by yeast fitness: ≤ 0.5 for the first, ≤ 0.5 for the second.

G12C A15U C24A G56A A57G G67A and C4G G18C C55U G67C cannot be ordered by yeast fitness: ≤ 0.5 for the first, ≤ 0.5 for the second.

Going from G38A C62U A70U to G18C A57G A65U, the yeast fitness falls from 0.577 to ≤ 0.5.

First: C4U G6C A21C C30G C55U C60G
Second: U16A C33G C49A
The yeast fitness of the first is lower: ≤ 0.5 for the first, 0.537 for the second.

U8A G18A A20G C30A U32A U35G G67A and C22A U35C A40G cannot be ordered by yeast fitness: ≤ 0.5 for the first, ≤ 0.5 for the second.

U19A G44C G68C and U3C C11A U32G cannot be ordered by yeast fitness: ≤ 0.5 for the first, ≤ 0.5 for the second.

G17C C31G A45C U54C C55A and G23A C46A C49A cannot be ordered by yeast fitness: ≤ 0.5 for the first, ≤ 0.5 for the second.

A20U C29G C49G G58U G63C and U28A A45C U53A cannot be ordered by yeast fitness: ≤ 0.5 for the first, ≤ 0.5 for the second.

C4A G17A A42G C61G and C27G G38C C49G A70C cannot be ordered by yeast fitness: ≤ 0.5 for the first, ≤ 0.5 for the second.

A21C U26A C29G and C4A U26C U32A C34U G38C G51A A57C C66U cannot be ordered by yeast fitness: ≤ 0.5 for the first, ≤ 0.5 for the second.

Going from U8C U13C G25A C27A G39C G68C to A20U A37U, the yeast fitness rises from ≤ 0.5 to 0.811.

U7C G23A G39C A70G and U2C C24G C29U A69C cannot be ordered by yeast fitness: ≤ 0.5 for the first, ≤ 0.5 for the second.

Compared with U2A U16C A40G A43U, G17A C31G is higher in yeast fitness: ≤ 0.5 for the first, 0.85 for the second.

C5A U13A A57C and C5U G41C A43U G67U cannot be ordered by yeast fitness: ≤ 0.5 for the first, ≤ 0.5 for the second.

C33U U59C A65C and G17C C30U A36G A70G cannot be ordered by yeast fitness: ≤ 0.5 for the first, ≤ 0.5 for the second.

C11U G25A C29U G50A A70C and C31U A36G C55G C62U cannot be ordered by yeast fitness: ≤ 0.5 for the first, ≤ 0.5 for the second.

C29U C49U U64G and U28G C30U A36C cannot be ordered by yeast fitness: ≤ 0.5 for the first, ≤ 0.5 for the second.

Compared with A20G A42G C61G A65G C66A, A14C C27G A69U is higher in yeast fitness: ≤ 0.5 for the first, 0.561 for the second.

C4U G6C A14U C24G G58C G68C and A20G G38C G41C A65G cannot be ordered by yeast fitness: ≤ 0.5 for the first, ≤ 0.5 for the second.

G44C C49G A57C and G44C G56C A69U cannot be ordered by yeast fitness: ≤ 0.5 for the first, ≤ 0.5 for the second.

U7A C22A G52A and U3C C22A U47A A70G cannot be ordered by yeast fitness: ≤ 0.5 for the first, ≤ 0.5 for the second.

Compared with U8C C34G A36G, A21C C27U A57G is higher in yeast fitness: ≤ 0.5 for the first, 0.79 for the second.

C30U G41A U47A A69C and A15C U19C A21G C34U cannot be ordered by yeast fitness: ≤ 0.5 for the first, ≤ 0.5 for the second.

A15U C33U C62G A69C and C34G C55U cannot be ordered by yeast fitness: ≤ 0.5 for the first, ≤ 0.5 for the second.

G18A U28A U47A A57G and U7C U32A A65C cannot be ordered by yeast fitness: ≤ 0.5 for the first, ≤ 0.5 for the second.

C4G C5G C27G A36C C49A and G10A A21C C66G cannot be ordered by yeast fitness: ≤ 0.5 for the first, ≤ 0.5 for the second.

Going from U2A A14C C30U C34G G63A to G9A G12C G17A C22G C30U C34G C49U U59G, the yeast fitness falls from 0.574 to ≤ 0.5.

First: A37G G39A A45C
Second: U16G C24U U28C A36C U59C A65C
The yeast fitness of the first is higher: 0.635 for the first, ≤ 0.5 for the second.

C4U A14G G17C C49A and A15G C24G U26A A36G G52A G68C cannot be ordered by yeast fitness: ≤ 0.5 for the first, ≤ 0.5 for the second.

Going from A21U C34U G38C to C27U C30G, the yeast fitness rises from ≤ 0.5 to 0.624.

U19A C24U C29A U54A and G25A G44C G52A C62G A69G cannot be ordered by yeast fitness: ≤ 0.5 for the first, ≤ 0.5 for the second.

Compared with U13C G48A C62A, U2A C4A C31U G38A U54G is lower in yeast fitness: 0.689 for the first, ≤ 0.5 for the second.

Compared with U19A C31U, A15C G25A G48C C66U G67C A70G is lower in yeast fitness: 0.954 for the first, ≤ 0.5 for the second.

U2C U16G A69G A70U and U16A G18C U35A C55G A69C cannot be ordered by yeast fitness: ≤ 0.5 for the first, ≤ 0.5 for the second.

C22A C24A U26C C66U and C4G C22G C24U G41A A57U C66A cannot be ordered by yeast fitness: ≤ 0.5 for the first, ≤ 0.5 for the second.

U3C C5G A15U A21C G39C and U28A A37C C61G G68U cannot be ordered by yeast fitness: ≤ 0.5 for the first, ≤ 0.5 for the second.

G12A C24G U47A C49G A69C and A43G G44A G56C C62U cannot be ordered by yeast fitness: ≤ 0.5 for the first, ≤ 0.5 for the second.

Compared with G44C A65G A70C, G17C C55U G68C is lower in yeast fitness: 0.682 for the first, ≤ 0.5 for the second.

First: A15G
Second: G6C G56C A70C
The yeast fitness of the first is higher: 0.987 for the first, ≤ 0.5 for the second.

Going from U32G G67C to U2C C30A U53A, the yeast fitness falls from 0.59 to ≤ 0.5.

C5A C27A U28G G38A C46G C62U and A20U U28C C30U A43G U64C cannot be ordered by yeast fitness: ≤ 0.5 for the first, ≤ 0.5 for the second.

C31U G41U A57G A65G and U7A C31G C33U A42G G52C G58C cannot be ordered by yeast fitness: ≤ 0.5 for the first, ≤ 0.5 for the second.

G18A C33U G44A C62G and C5U U28A C34U G41A cannot be ordered by yeast fitness: ≤ 0.5 for the first, ≤ 0.5 for the second.

C29G C33U G58C and U2C C4U A21C A43G C60G A65G cannot be ordered by yeast fitness: ≤ 0.5 for the first, ≤ 0.5 for the second.

G6A U47A A57U and C5A G6C G63A cannot be ordered by yeast fitness: ≤ 0.5 for the first, ≤ 0.5 for the second.

Compared with A15U A21G C24U C33U A40C A43C C49U, U2A A57G is higher in yeast fitness: ≤ 0.5 for the first, 0.897 for the second.

A20C G48C A57G A65C G67C A69G and C27U C49U G52A C60A cannot be ordered by yeast fitness: ≤ 0.5 for the first, ≤ 0.5 for the second.

U2A G23A C30U C62A and G10A C31A C55U G63A cannot be ordered by yeast fitness: ≤ 0.5 for the first, ≤ 0.5 for the second.

C5G G10U A21C A43U and U7G C11G C34U C46U U54G A70U cannot be ordered by yeast fitness: ≤ 0.5 for the first, ≤ 0.5 for the second.

C31G A57U G67U and A21C A45C U53C cannot be ordered by yeast fitness: ≤ 0.5 for the first, ≤ 0.5 for the second.

C4U C5U A14C A70G and C4G A21C C27A U28G A69U cannot be ordered by yeast fitness: ≤ 0.5 for the first, ≤ 0.5 for the second.

First: C5U C31A C34U C61G
Second: A45C U59G
The yeast fitness of the first is lower: ≤ 0.5 for the first, 0.713 for the second.

C11G G25C U26C C62U and U7A A14U C22U C27A C33U C61A cannot be ordered by yeast fitness: ≤ 0.5 for the first, ≤ 0.5 for the second.

Compared with A20C C34A G56C, C11A A42C G58A is higher in yeast fitness: ≤ 0.5 for the first, 0.742 for the second.

U19C A20G A40G and U32G A36U U59C cannot be ordered by yeast fitness: ≤ 0.5 for the first, ≤ 0.5 for the second.

A37U G52A A65G and C4G C5U C22G U64C cannot be ordered by yeast fitness: ≤ 0.5 for the first, ≤ 0.5 for the second.

U2A U13C A20G A21C C34U A36G A69C and U7A G44C C49A cannot be ordered by yeast fitness: ≤ 0.5 for the first, ≤ 0.5 for the second.

First: U7A C22G C30U U32C A37G A70G
Second: A42C G63C
The yeast fitness of the first is lower: ≤ 0.5 for the first, 0.681 for the second.

For C24A C61U G68C, the yeast fitness was ≤ 0.5.
